Record: PubChem BioAssay AID1508587 (Peter MacCallum Cancer Centre, 2020)
The deposit covers about 1,600 reagents; this is a random part of them. Over the whole deposit, 623 (39%) are marked active. 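Calls are for each duplex; lactate ratios contain extreme outliers.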 Entries without a mark were called inactive. Reagents against one gene are numbered here.

Assay: 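Follow-up of vemurafenib sensitisers scored by lactate made per cell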 (follow-up of hits)
System: human WM266.4 melanoma cells with a BRAF V600 mutation
Reagents: single siRNA against human genes, 25 nM
Time to read-out: 96 h
Challenge: vemurafenib 300 nM (about IC25), given 48 h after transfection for 48 h
Read-out: 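Per-cell lactate from absorbance divided by DAPI nucleus counts, compared with and without vemurafenib, relative to non-targeting siRNA, mean of 2 replicates; nuclear counts also give cell number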
Reading the numbers: lactate per cell, drug vs no drug: higher = less drug-induced drop in lactate per cell; lactate per cell with vemurafenib: higher = more lactate per cell under drug; lactate per cell without drug: higher = more lactate per cell without drug; cell growth with vemurafenib and cell growth without drug: higher = more cell growth over 48 h
Hit rule: 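Enhancer call for any duplex whose drug versus no-drug per-cell lactate ratio is below 0.55 (2 SD beneath non-targeting average); genes confirmed when at least 2 of their 4 duplexes qualify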

gene symbol	siRNA no.	lactate per cell, drug vs no drug	lactate per cell with vemurafenib	lactate per cell without drug	cell growth with vemurafenib	cell growth without drug
TRAPPC1 (trafficking protein particle complex subunit 1)	1	0.52 (active)	1.1	1.5	0.5	0.54
TRAPPC1 (trafficking protein particle complex subunit 1)	2	0.3 (active)	0.4	0.98	0.2	0.37
TRAPPC1 (trafficking protein particle complex subunit 1)	3	0.77	1.09	1.05	0.87	0.96
TRAPPC1 (trafficking protein particle complex subunit 1)	4	0.72	1.33	1.34	0.93	0.76
HSF1 (heat shock transcription factor 1)	1	0.33 (active)	0.93	1.79	0.11	0.05
HSF1 (heat shock transcription factor 1)	2	0.34 (active)	0.5	0.92	0.38	0.54
HSF1 (heat shock transcription factor 1)	3	0.51 (active)	0.8	0.92	1.11	0.72
HSF1 (heat shock transcription factor 1)	4	0.66	1.23	1.08	0.3	0.44
NPIPB7 (nuclear pore complex interacting protein family member B7)	1	0.56	1.1	1.21	0.7	0.65
NPIPB7 (nuclear pore complex interacting protein family member B7)	2	0.57	1.23	1.34	0.18	0.36
NPIPB7 (nuclear pore complex interacting protein family member B7)	3	0.41 (active)	0.68	1.03	0.38	0.44
NPIPB7 (nuclear pore complex interacting protein family member B7)	4	0.39 (active)	0.68	1.07	0.31	0.47
BLK (BLK proto-oncogene, Src family tyrosine kinase)	1	0.56	1.54	1.77	0.58	0.3
BLK (BLK proto-oncogene, Src family tyrosine kinase)	2	0.32 (active)	0.4	0.81	0.82	0.73
BLK (BLK proto-oncogene, Src family tyrosine kinase)	3	1.06	2.46	1.46	0.34	0.61
BLK (BLK proto-oncogene, Src family tyrosine kinase)	4	0.73	1.42	1.23	1.13	0.93
CCL3 (C-C motif chemokine ligand 3)	1	0.86	1.09	0.84	0.7	0.91
CCL3 (C-C motif chemokine ligand 3)	2	1.1	2.16	1.33	0.04	0.18
CCL3 (C-C motif chemokine ligand 3)	3	0.58	2.11	2.39	0.27	0.19
CCL3 (C-C motif chemokine ligand 3)	4	0.43 (active)	0.52	0.8	0.44	0.51
PACSIN1 (protein kinase C and casein kinase substrate in neurons 1)	1	0.49 (active)	0.82	1.05	0.97	0.95
PACSIN1 (protein kinase C and casein kinase substrate in neurons 1)	2	0.47 (active)	0.75	1	0.22	0.19
PACSIN1 (protein kinase C and casein kinase substrate in neurons 1)	3	0.55	1.06	1.23	0.43	0.42
PACSIN1 (protein kinase C and casein kinase substrate in neurons 1)	4	0.64	1	0.98	0.66	1
QPRT (quinolinate phosphoribosyltransferase)	1	0.4 (active)	0.56	0.93	-0.06	0.27
QPRT (quinolinate phosphoribosyltransferase)	2	0.55	1.56	1.92	0.4	0.3
QPRT (quinolinate phosphoribosyltransferase)	3	0.58	1.25	1.42	0.4	0.41
QPRT (quinolinate phosphoribosyltransferase)	4	0.64	1.36	1.4	0.63	0.39
FAAH (fatty acid amide hydrolase)	1	0.87	1.58	1.18	0.43	0.25
FAAH (fatty acid amide hydrolase)	2	0.4 (active)	0.45	0.74	0.57	0.81
FAAH (fatty acid amide hydrolase)	3	0.77	2.72	2.31	0.11	0.21
FAAH (fatty acid amide hydrolase)	4	0.76	2	1.71	0.49	0.47
TPM2 (tropomyosin 2)	1	0.55	2.12	2.63	0.08	0.04
TPM2 (tropomyosin 2)	2	0.62	1.08	1.19	0.73	0.55
TPM2 (tropomyosin 2)	3	0.62	1.12	1.24	0.71	0.58
TPM2 (tropomyosin 2)	4	0.64	1.19	1.28	0.04	0.08
HECTD2 (HECT domain E3 ubiquitin protein ligase 2)	1	0.5 (active)	1.49	1.73	0.49	0.23
HECTD2 (HECT domain E3 ubiquitin protein ligase 2)	2	0.48 (active)	1.03	1.27	0.48	0.38
HECTD2 (HECT domain E3 ubiquitin protein ligase 2)	3	0.52 (active)	1.5	1.69	0.54	0.47
HECTD2 (HECT domain E3 ubiquitin protein ligase 2)	4	0.55	1.1	1.19	0.53	0.49

10 entries from above, arranged by “cell growth with vemurafenib”, descending:
gene symbol	siRNA no.	lactate per cell, drug vs no drug	lactate per cell with vemurafenib	lactate per cell without drug	cell growth with vemurafenib	cell growth without drug
BLK (BLK proto-oncogene, Src family tyrosine kinase)	4	0.73	1.42	1.23	1.13	0.93
PACSIN1 (protein kinase C and casein kinase substrate in neurons 1)	1	0.49 (active)	0.82	1.05	0.97	0.95
BLK (BLK proto-oncogene, Src family tyrosine kinase)	2	0.32 (active)	0.4	0.81	0.82	0.73
CCL3 (C-C motif chemokine ligand 3)	1	0.86	1.09	0.84	0.7	0.91
BLK (BLK proto-oncogene, Src family tyrosine kinase)	1	0.56	1.54	1.77	0.58	0.3
CCL3 (C-C motif chemokine ligand 3)	4	0.43 (active)	0.52	0.8	0.44	0.51
BLK (BLK proto-oncogene, Src family tyrosine kinase)	3	1.06	2.46	1.46	0.34	0.61
NPIPB7 (nuclear pore complex interacting protein family member B7)	4	0.39 (active)	0.68	1.07	0.31	0.47
CCL3 (C-C motif chemokine ligand 3)	3	0.58	2.11	2.39	0.27	0.19
CCL3 (C-C motif chemokine ligand 3)	2	1.1	2.16	1.33	0.04	0.18

Continued.
gene symbol	siRNA no.	lactate per cell, drug vs no drug	lactate per cell with vemurafenib	lactate per cell without drug	cell growth with vemurafenib	cell growth without drug
SLC6A13	1	0.36 (active)	0.46	0.84	0.31	0.45
SLC6A13	2	0.84	2.44	1.87	0.13	0.19
SLC6A13	3	0.53 (active)	0.82	1.01	0.76	0.66
SLC6A13	4	1.05	3	1.86	0.23	0.34
FHL1 (four and a half LIM domains 1)	1	0.49 (active)	1.44	2.04	0.11	-0.05
FHL1 (four and a half LIM domains 1)	2	0.62	0.76	0.86	0.77	0.89
FHL1 (four and a half LIM domains 1)	3	0.89	1.29	1	0.59	1.04
FHL1 (four and a half LIM domains 1)	4	0.68	2.33	2.36	0.03	0.05
TBL1Y (transducin beta like 1 Y-linked)	1	0.78	0.83	0.7	0.32	0.74
TBL1Y (transducin beta like 1 Y-linked)	2	0.71	2.02	1.9	0.26	0.27
TBL1Y (transducin beta like 1 Y-linked)	3	0.52 (active)	1.23	1.58	0.07	0.14
TBL1Y (transducin beta like 1 Y-linked)	4	0.82	1.99	1.6	0.08	0.21
SPDYE1 (speedy/RINGO cell cycle regulator family member E1)	1	0.47 (active)	0.9	1.31	0.29	0.33
SPDYE1 (speedy/RINGO cell cycle regulator family member E1)	2	0.63	1.45	1.58	0.77	0.52
SPDYE1 (speedy/RINGO cell cycle regulator family member E1)	3	0.83	1.46	1.2	0.62	0.45
SPDYE1 (speedy/RINGO cell cycle regulator family member E1)	4	0.68	0.95	0.94	0.7	0.95
IL17RD (interleukin 17 receptor D)	1	0.67	2.46	2.4	-0.01	0.02
IL17RD (interleukin 17 receptor D)	2	0.84	2.1	1.64	0.01	0.13
IL17RD (interleukin 17 receptor D)	3	0.58	1.27	1.44	-0.03	0.15
IL17RD (interleukin 17 receptor D)	4	0.74	1.43	1.25	0.21	0.22
SCHIP1 (schwannomin interacting protein 1)	1	0.44 (active)	2.54	4.81	0.4	0
SCHIP1 (schwannomin interacting protein 1)	2	0.5 (active)	0.64	0.77	0.35	0.55
SCHIP1 (schwannomin interacting protein 1)	3	0.41 (active)	0.82	1.31	0.23	0.16
SCHIP1 (schwannomin interacting protein 1)	4	0.62	1.04	1.04	0.72	0.84
